Reference: article PMC8366450

Chains of the proteins cited; added tags and fusions are not shown. Lines headed by an entry give the natural chain unless they say otherwise; changes in a name come on top.
UniProt Q9H2A7: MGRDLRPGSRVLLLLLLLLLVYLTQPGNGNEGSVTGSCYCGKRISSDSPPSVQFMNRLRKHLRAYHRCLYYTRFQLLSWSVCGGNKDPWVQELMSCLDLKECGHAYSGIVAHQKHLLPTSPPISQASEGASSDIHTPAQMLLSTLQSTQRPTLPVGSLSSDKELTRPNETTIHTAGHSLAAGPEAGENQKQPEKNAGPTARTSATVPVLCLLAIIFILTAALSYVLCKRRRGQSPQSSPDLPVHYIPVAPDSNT

Biological target: C-X-C motif chemokine ligand 16 (human) (UniProt Q9H2A7)
Test: peptide or protein array; HuProt v3.1 human proteome microarray; >20 000 human recombinant proteins immobilised on the array; purified His-V5-CPPED1 applied; both purified

Q: With “human recombinant CPPED1 with N-terminal His-V5 dual tag (from UniProt Q9BRF8 1-314) (enzyme)” as the substance, how does the binding read?
A: binds

Results are given in words; binding and its absence hold for the method and conditions named. A result given as binding can be weak or reduced; the word gives no strength.
